{
  "source": "paper PMC12040169",
  "about": "(PLOS Biology, 2025)",
  "note": "This is one part of the list.",
  "data": [
    {"tested_on": "T1, CTL2-GFP (C. trachomatis L2/434/Bu, GFP-expressing)", "T1 construct": "L2/434/Bu, GFP-expressing", "design": "species or system HeLa; Intracellular C. trachomatis growth in HeLa cells, bulk GFP fluorescence relative to DMSO", "conditions": "bulk GFP, single well; 28.5 h, 10 µM; inhibitor", "units": {"% of control remaining": "%"}, "values": [
      {"smiles": "Nc1nonc1OCCCCOc1nonc1N", "note": "[CBK027716]", "% of control remaining": 105.043},
      {"smiles": "Cc1nnc(SCCN2CCOC2=O)n1CCc1cccs1", "note": "[CBK304029]", "% of control remaining": 145.152},
      {"smiles": "COc1ccc(-c2csc(Nc3ccc(S(=O)(=O)Nc4cc(C)on4)cc3)n2)cc1OC", "note": "[CBK261797B]", "% of control remaining": 94.1394},
      {"smiles": "Cc1nc2cc(-c3nccn3C)nn2c(N2CCN(c3ccc(O)cc3)CC2)c1C", "note": "[CBK286427]", "% of control remaining": 123.226},
      {"smiles": "Clc1cccc(CN2CCC(N3CCN(c4ccccc4)CC3)CC2)c1", "note": "[CBK264690G]", "% of control remaining": 100},
      {"smiles": "O=C(CSCc1ccccc1Cl)NNC(=O)c1cccnc1", "note": "[CBK267826]", "% of control remaining": 83.5502},
      {"smiles": "O=C(NC1CCCCC1)N1CC[C@H](c2nc3ccccc3o2)C1", "note": "[CBK289372]", "% of control remaining": 115.236},
      {"smiles": "Cc1nc(-c2ccc(NCCc3nc(C4CC4)cs3)nc2)[nH]c(=O)c1C", "note": "[CBK304424]", "% of control remaining": 77.2511},
      {"smiles": "CCc1cccc(-n2nc(C)c3c2NC(=O)CC3C(=O)c2ccc(CC)s2)c1", "note": "(centres unmarked) [CBK294435]", "% of control remaining": 98.2707},
      {"smiles": "Cc1ccc(-c2nnc(SCC(=O)Nc3ccc(N4CCOCC4)cc3)n2C)cc1", "note": "[CBK270247]", "% of control remaining": 137.422},
      {"smiles": "CCn1nccc1N1CCCC(NC(=O)CCc2ccccc2Cl)C1=O", "note": "(centres unmarked) [CBK305455]", "% of control remaining": 81.9846},
      {"smiles": "COC(=O)CC(C)(C)/C(C)=N/NS(=O)(=O)c1ccc(C)cc1", "note": "[CBK263602]", "% of control remaining": 130.1},
      {"smiles": "Nc1nonc1-c1nc2ccccc2n1Cc1ccc(-c2nn[nH]n2)cc1", "note": "[CBK267648]", "% of control remaining": 109.709},
      {"smiles": "COc1cccc(CN2CCN(C(=O)c3cc(C)[nH]c3C)[C@@H](C)C2)c1", "note": "[CBK284255]", "% of control remaining": 128.425},
      {"smiles": "COc1ccc(Nc2ccc(-c3cccc(OC(F)(F)F)c3)cn2)cn1", "note": "[CBK037022]", "% of control remaining": 191.441},
      {"smiles": "COc1ccc(Cl)cc1NC(=O)NC(=O)C1CCN(CCOc2cccc3ccccc23)CC1", "note": "[CBK035116]", "% of control remaining": 100.468},
      {"smiles": "COC1CCCC(C(=O)N2CCC(c3onc4c3CCCC4)CC2)C1", "note": "(centres unmarked) [CBK284598]", "% of control remaining": 107.505},
      {"smiles": "Cn1cc(C(=O)NCC(c2ccccc2F)N2CCCC2)ccc1=O", "note": "(centres unmarked) [CBK281950]", "% of control remaining": 161.866},
      {"smiles": "COCc1ccc(C(=O)N2CCN3C(=O)CCC32C)o1", "note": "(centres unmarked) [CBK282091]", "% of control remaining": 123.74},
      {"smiles": "CN1CCN(C(=O)CSc2nc(-c3cccs3)cc(C(F)(F)F)n2)CC1", "note": "[CBK307372]", "% of control remaining": 196.304},
      {"smiles": "Nc1ccc(-c2cncc(NCc3ccccc3)n2)cc1", "note": "[CBK065578]", "% of control remaining": 88.2392},
      {"smiles": "CN(C)S(=O)(=O)N1CCC(Cc2ccccc2)CC1", "note": "[CBK263768]", "% of control remaining": 100.041},
      {"smiles": "CN(C)CCCNc1c(N)c(=O)oc2ccccc12", "note": "[CBK261468]", "% of control remaining": 98.3471},
      {"smiles": "Cc1cc(C)n(C2CCN(Cc3cn(C)c4cc(F)ccc34)CC2)n1", "note": "[CBK281806]", "% of control remaining": 136.17},
      {"smiles": "Cc1cccn2c(CN3CCCOCC3)c(C(=O)N3CCOCC3)nc12", "note": "[CBK307144]", "% of control remaining": 105.78},
      {"smiles": "COc1ccc2c(-c3cc(N)sn3)c(C)oc2c1", "note": "[CBK022260]", "% of control remaining": 139.173},
      {"smiles": "O=C(O)c1cccc(-n2cc(-c3cccc(C(F)(F)F)c3)nn2)c1", "note": "[CBK112949]", "% of control remaining": 211.458},
      {"smiles": "CN(C(=O)c1cccs1)c1ccc(Oc2ncc(C(F)(F)F)cc2Cl)cc1", "note": "[CBK161654]", "% of control remaining": 69.6673},
      {"smiles": "O=C1CCC(=O)N1CCOc1nccnc1N1CCN(CCc2ccccn2)CC1", "note": "[CBK084309]", "% of control remaining": 103.31},
      {"smiles": "CC(C)OC(=O)CSc1nnc(-c2cnccn2)n1Cc1ccco1", "note": "[CBK267586]", "% of control remaining": 100.738},
      {"smiles": "Cc1cc(NC(=O)CSc2ccc3nnc(-c4ccccc4)n3n2)no1", "note": "[CBK287518]", "% of control remaining": 114.217},
      {"smiles": "O=C1NC(=O)c2cc(S(=O)(=O)NCCCO)cc3cccc1c23", "note": "[CBK267602]", "% of control remaining": 97.4344},
      {"smiles": "Cc1csc2ncc(C(=O)Nc3cc(C(F)(F)F)ccc3Cl)c(=O)n12", "note": "[CBK287465]", "% of control remaining": 142.482},
      {"smiles": "Cc1cc(NC(=O)Cc2ccsc2)c2ccccc2n1", "note": "[CBK116259]", "% of control remaining": 103.335},
      {"smiles": "CC(=O)NCCC1CCN(c2nc(C(C)(C)C)nc3c2cnn3C)CC1", "note": "[CBK307364]", "% of control remaining": 129.821},
      {"smiles": "OC(CN1CCC(Oc2ccccc2F)CC1)c1cccs1", "note": "(centres unmarked) [CBK281433]", "% of control remaining": 119.349},
      {"smiles": "COCCN1CC[C@@H]2[C@@H](C/C=C/Cc3ccccc3OCC(=O)N2C)C1", "note": "[CBK292134]", "% of control remaining": 110.831},
      {"smiles": "CN1CCN(c2ccc3ccn(S(=O)(=O)c4ccc([N+](=O)[O-])cc4)c3n2)CC1", "note": "[CBK070757C]", "% of control remaining": 22.0294},
      {"smiles": "CC(=O)N[C@H]1CC[C@]2(C)CCC([C@H](C)C(=O)N3CCCCC3)[C@H](O)[C@H]2[C@@H]1C", "note": "(some centres unmarked) [CBK289439]", "% of control remaining": 171.399},
      {"smiles": "Oc1cccc(/C=N/n2c(S)nnc2-c2ccncc2)c1", "note": "[CBK265300]", "% of control remaining": 116.638},
      {"smiles": "CS(=O)(=O)Nc1nnc(C(F)(F)F)s1", "note": "[CBK038168]", "% of control remaining": 109.184},
      {"smiles": "COc1ccc(CSc2nnc(SCc3ccc(C(=O)O)cc3)s2)cc1", "note": "[CBK300477]", "% of control remaining": 108.965},
      {"smiles": "C#CCNC(=O)CC[C@H]1CNC(=O)[C@@H]2[C@@H](CCN2CC(C)(C)C)N1C", "note": "[CBK289035]", "% of control remaining": 161.577},
      {"smiles": "CC1CCN(S(=O)(=O)c2ccc(C(=O)N3CCCCC3C(=O)O)cc2)CC1", "note": "(centres unmarked) [CBK297094]", "% of control remaining": 130.487},
      {"smiles": "CCOC(=O)C1CCN(C(=O)c2ccc(OC)cc2)CC1", "note": "[CBK074220]", "% of control remaining": 128.311},
      {"smiles": "C=C(C)Cn1c(SCC(=O)O)nnc1-c1ccccc1", "note": "[CBK262737]", "% of control remaining": 100},
      {"smiles": "O=C1CC(SCCc2nc3ccccc3[nH]2)C(=O)N1c1ccc(F)cc1", "note": "(centres unmarked) [CBK267500]", "% of control remaining": 154.5},
      {"smiles": "Cc1ccc2[nH]c(/C(C#N)=C\\c3cn(CC(=O)Nc4ccccc4)c4ccccc34)nc2c1", "note": "[CBK267612]", "% of control remaining": 110.285},
      {"smiles": "Cc1cc(Cl)c(S(=O)(=O)Nc2ccc3c(c2)OCCO3)cc1OCC(=O)NC1CCCCC1", "note": "[CBK266786]", "% of control remaining": 146.874},
      {"smiles": "COc1ccc(S(=O)(=O)Nc2nnc(C)s2)cc1", "note": "[CBK045543]", "% of control remaining": 118.971}
    ]}
  ]
}
